PubChem BioAssay AID328 (DTP/NCI, 2004)
The list does not hold the whole screen: it is rich in T/C values a quarter to a half above the control, in often repeated tests (any T/C) and in doses without a T/C. Other doses and runs of a compound stand elsewhere. T/C: endpoint of the treated group in % of that of the vehicle group. Some entries give survivors of the animals treated and no T/C: the source files T/C as zero there, which appears to mark a toxic dose or a test without result, not a measured value. Some doses without a T/C left all or most animals alive at the check, yet need not have been tolerated: the source hardly ever lists a survival T/C far under the control, and the zero likely stands for such cases as well. Survivors were counted at the toxicity check, usually on the fifth day, unless a day is given; later deaths do not show. Schedules are NCI's codes, read here as Q, the interval in days (D) or hours (H), X, the number of doses. Where survival is the endpoint, the PubChem record calls one and a half times the control and up active, and a quarter to a half above the control has no call in these data; cut-offs in other NCI protocols can differ. Additions like (4×) give the number of equal values in this list. Some doses were run more than once; their values stand side by side, smallest first.

Test system: BDF1 mice, P388 leukemia ip, median survival T/C
Assay: NCI In Vivo Anticancer Drug Screen. Data for tumor model P388 Leukemia (intraperitoneal) in B6D2F1 (BDF1) mice
Conditions: T/C endpoint: median survival time, higher T/C = longer survival
Procedure, shortened: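 Compound-treated tumour-bearing mice were compared with vehicle-treated controls. Survival was recorded, and the value is the treated-group measurement divided by the control-group measurement (T/C).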

[1] = dose: 400.0 mg/kg/injection, schedule: Q04DX003 (ip), vehicle: saline with Tween-80
[2] = dose: 100.0 mg/kg/injection, schedule: Q04DX003 (ip), vehicle: saline
[3] = dose: 200.0 mg/kg/injection, schedule: Q04DX003 (ip), vehicle: saline

## Cc1cc(NC(=O)Nc2ccc(C3=NCCCN3)cc2)ccc1NC(=O)Nc1ccc(C2=NCCCN2)cc1
dose: 19.0 mg/kg/injection, schedule: Q01DX009 (ip), vehicle: saline
  T/C: 149 % of control
dose: 100.0 mg/kg/injection, schedule: Q01DX009 (ip), vehicle: saline
  T/C: 147 % of control

## O=C1C(CO)=C[C@@H](O)[C@H]2O[C@@H]12
dose: 3.1 mg/kg/injection, schedule: Q01DX001 (ip), vehicle: saline
  T/C: 135 % of control
dose: 48.0 mg/kg/injection, schedule: Q01DX010 (ip), vehicle: saline
  T/C: 138 % of control
dose: 50.0 mg/kg/injection, schedule: Q01DX010 (ip), vehicle: saline
  survivor count: 1 of 6
dose: 100.0 mg/kg/injection, schedule: Q01DX010 (ip), vehicle: saline
  survivor count: 0 of 6
dose: 200.0 mg/kg/injection, schedule: Q01DX010 (ip), vehicle: saline
  survivor count: 0 of 6
dose: 400.0 mg/kg/injection, schedule: Q01DX010 (ip), vehicle: saline
  survivor count: 0 of 6

## CCCCOC1OC[N+](C)(C)CC1(C)C (centres undefined)
dose: 200.0 mg/kg/injection, schedule: Q04DX003 (ip), vehicle: saline with Tween-80
  survivor count: 6 of 6
[1]
  survivor count: 0 of 6

## CC(C)C1C(=O)N2CCCC2C2(O)OC(NC(=O)C3C=C4c5cccc6[nH]cc(c56)CC4N(C)C3)(C(C)C)C(=O)N12 (centres undefined)
dose: 25.0 mg/kg/injection, schedule: Q01DX009 (ip), vehicle: Klucel (hydroxypropylcellulose) (HPC)
  survivor count: 6 of 6
[2]
  T/C: 125 % of control
dose: 200.0 mg/kg/injection, schedule: Q01DX009 (ip), vehicle: saline
  survivor count: 5 of 7
dose: 400.0 mg/kg/injection, schedule: Q01DX009 (ip), vehicle: saline
  survivor count: 1 of 7

## C=C(C)[C@@H]1CC[C@]2(CO)CC[C@]3(C)[C@H](CC[C@@H]4[C@@]5(C)CC[C@H](O)C(C)(C)[C@@H]5CC[C@]43C)[C@@H]12
dose: 300.0 mg/kg/injection, schedule: Q01DX009 (ip), vehicle: other
  survivor count: 3 of 3

## ClC1=C(Cl)[C@@]2(Cl)[C@H]3[C@H]4C[C@H]([C@@H]5O[C@H]45)[C@H]3[C@@]1(Cl)C2(Cl)Cl
dose: 12.5 mg/kg/injection, schedule: Q01DX009 (ip), vehicle: Klucel (hydroxypropylcellulose) (HPC)
  survivor count: 6 of 6

## CCOC(=O)c1c(NC(=O)CCC(=O)Nc2sc(C)c(C)c2C(=O)OCC)sc(C)c1C
[2]
  survivor count: 6 of 6
dose: 200.0 mg/kg/injection, schedule: Q01DX009 (ip), vehicle: saline with Tween-80
  survivor count: 6 of 6
[3]
  survivor count: 6 of 6

## CCCCOB=O
[1]
  survivor count: 3 of 6

## C1=C(c2ccccc2)[P+](c2ccccc2)(c2ccccc2)C=C(c2ccccc2)[P+]1(c1ccccc1)c1ccccc1
dose: 3.3 mg/kg/injection, schedule: Q04DX003 (ip), vehicle: saline
  T/C: 125 % of control
dose: 5.0 mg/kg/injection, schedule: Q04DX003 (ip), vehicle: saline
  T/C: 130 % of control
dose: 7.5 mg/kg/injection, schedule: Q04DX003 (ip), vehicle: saline
  T/C: 130 % of control (2×)
dose: 8.0 mg/kg/injection, schedule: Q01DX009 (ip), vehicle: saline
  T/C: 130 % of control
dose: 12.0 mg/kg/injection, schedule: Q01DX009 (ip), vehicle: saline
  T/C: 126 % of control
dose: 12.5 mg/kg/injection, schedule: Q01DX009 (ip), vehicle: saline
  T/C: 141 % of control
dose: 17.0 mg/kg/injection, schedule: Q04DX003 (ip), vehicle: saline
  T/C: 136 % of control
dose: 18.0 mg/kg/injection, schedule: Q01DX009 (ip), vehicle: saline
  T/C: 142 % of control
dose: 25.0 mg/kg/injection, schedule: Q01DX009 (ip), vehicle: saline
  T/C: 129 % of control
dose: 25.0 mg/kg/injection, schedule: Q04DX003 (ip), vehicle: saline
  T/C: 127 and 130 % of control
dose: 50.0 mg/kg/injection, schedule: Q01DX009 (ip), vehicle: saline
  survivor count: 5 of 6

## CC[n+]1ccc(Nc2ccc(NC(=O)c3ccc(C(=O)Nc4ccc(Nc5cc[n+](CC)c(N)n5)cc4)cc3)cc2)nc1N
dose: 0.03 mg/kg/injection, schedule: Q01DX009 (ip), vehicle: saline
  T/C: 127 % of control
dose: 0.06 mg/kg/injection, schedule: Q01DX009 (ip), vehicle: saline
  T/C: 131 % of control
dose: 1.1 mg/kg/injection, schedule: Q01DX009 (ip), vehicle: saline
  T/C: 140 % of control
dose: 2.0 mg/kg/injection, schedule: Q04DX003 (ip), vehicle: saline
  T/C: 145 % of control
dose: 2.5 mg/kg/injection, schedule: Q01DX009 (ip), vehicle: saline
  T/C: 134 % of control
dose: 15.0 mg/kg/injection, schedule: Q04DX003 (ip), vehicle: saline
  T/C: 140 % of control
dose: 40.0 mg/kg/injection, schedule: Q01DX009 (ip), vehicle: saline
  T/C: 140 % of control
[3]
  survivor count: 5 of 6
